Data published in US20130115227A1.
Results are given in words; binding and its absence hold for the method and conditions named. Some results given as binding are weak or reduced against the parent protein; the word gives no strength.

Chains of the proteins cited; added tags and fusions are not shown. Residues count along the entry.
amyloid β (Aβ)-derived diffusible ligands (ADDLs) (P05067, residues 672-713): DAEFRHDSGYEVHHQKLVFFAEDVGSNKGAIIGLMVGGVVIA
monomer Aβ (three-pronged Aβ ELISA of FIG. 1) (P05067, residues 672-711): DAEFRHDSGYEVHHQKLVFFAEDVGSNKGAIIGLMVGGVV

Tests used:
[1] = target: amyloid β (Aβ)-derived diffusible ligands (ADDLs) (UniProt P05067); experiment: three-pronged Aβ ELISA (FIG. 1)
[2] = target: amyloid β (Aβ)-derived diffusible ligands (ADDLs) (UniProt P05067); experiment: three-pronged ELISA at a single concentration (FIG. 1)
[3] = target: amyloid β (Aβ)-derived diffusible ligands (ADDLs) (UniProt P05067); experiment: ELISA, eleven point titration on ADDLs and monomer Aβ1-40 (FIG. 2)
[4] = target: amyloid β (Aβ)-derived diffusible ligands (ADDLs) (UniProt P05067); experiment: ELISA, bADDLs on a streptavidin-coated plate, 11 point antibody titration, anti-human IgG-Fc-HRP, A450
[5] = target: amyloid β (Aβ)-derived diffusible ligands (ADDLs) (UniProt P05067); experiment: immunocytochemistry of brain sections of hAPP transgenic mice dosed IV with 125I-labeled antibody (FIGS. 10C, 10D)
monomer Aβ (Aβ1-40) = monomer Aβ (Aβ1-40) (UniProt P05067); experiment: ELISA, monomer Aβ1-40 on a streptavidin-coated plate, 11 point antibody titration, anti-human IgG-Fc-HRP, A450
[6] = target: amyloid β (Aβ)-derived diffusible ligands (ADDLs) (UniProt P05067); experiment: three-pronged Aβ ELISA, antibody as capture antibody at one concentration (not given), luminescence; background = No mAb
fibrillar Aβ = fibrillar Aβ (UniProt P05067); experiment: as above
[7] = target: monomer Aβ (three-pronged Aβ ELISA of FIG. 1) (UniProt P05067); experiment: as above
[8] = target: amyloid β (Aβ)-derived diffusible ligands (ADDLs) (UniProt P05067); experiment: ELISA, plate coated with ADDLs (50 pmol/well), 12 point antibody titration, anti-human IgG-alkaline phosphatase, luminescence
[9] = target: amyloid β (Aβ)-derived diffusible ligands (ADDLs) (UniProt P05067); experiment: cell-based blocking assay: antibody pre-incubated with bADDLs, then added to primary hippocampal neurons; bADDLs bound to the neurons detected with streptavidin-AP, luminescence
[10] = target: amyloid β (Aβ)-derived diffusible ligands (ADDLs) (UniProt P05067); experiment: phage/Fab ELISA on ADDLs, anti-M13-HRP detection

Measured: binding

B1: anti-ADDL antibody 19.3 (antibody, human IgG2, kappa, V domains shown)
VH: EVQLVESGGGLVQPGGSLRLSCAASGFTFSSFGMHWVRQAPGKGLEWVAYISRGSSTIYYADTVKGRFTISRDNAKNSLYLQMNSLRAEDTAVYYCARGITTALDYWGQGTLVTVSS
VL: DVVMTQSPLSLPVTPGEPASISCRSSQSIVHSNGNTYLEWYLQKPGQSPQLLIYKASNRFSGVPDRFSGSGSGTDFTLKISRVEAEDVGVYYCFQGSRLGPSFGQGTKLEIKR
not listed: [10]
binds: all other assays above

B2: Fab clone 19.3 (phage-displayed) (Fab, V domains shown)
VH: EVQLVESGGGLVQPGGSLRLSCAASGFTFSSFGMHWVRQAPGKGLEWVAYISRGSSTIYYADTVKGRFTISRDNAKNSLYLQMNSLRAEDTAVYYCARGITTALDYWGQGTLVTVSS
VL: DVVMTQSPLSLPVTPGEPASISCRSSQSIVHSNGNTYLEWYLQKPGQSPQLLIYKASNRFSGVPDRFSGSGSGTDFTLKISRVEAEDVGVYYCFQGSRLGPSFGQGTKLEIK
binds: [10]
